The other results are listed elsewhere or left out.

This assay concerns the target T1, OsSMF1 (Oryza sativa, UniProt Q6ZLB0 1-436).
T1 sequence: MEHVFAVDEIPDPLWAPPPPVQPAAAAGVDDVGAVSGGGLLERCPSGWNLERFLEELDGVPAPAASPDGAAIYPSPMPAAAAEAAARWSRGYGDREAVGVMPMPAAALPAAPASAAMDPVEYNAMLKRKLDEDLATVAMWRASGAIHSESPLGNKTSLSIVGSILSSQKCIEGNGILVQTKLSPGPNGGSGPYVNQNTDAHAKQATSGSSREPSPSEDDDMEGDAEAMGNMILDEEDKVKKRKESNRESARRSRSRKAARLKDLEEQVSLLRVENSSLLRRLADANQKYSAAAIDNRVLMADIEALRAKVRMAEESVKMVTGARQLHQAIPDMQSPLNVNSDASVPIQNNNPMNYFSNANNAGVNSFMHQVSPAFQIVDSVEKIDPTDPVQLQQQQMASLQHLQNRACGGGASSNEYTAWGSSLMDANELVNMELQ
Put plainly: protein-binding microarray (RPBM); PBS, 2% BSA, 51.3 ng/ul salmon testes DNA, 50 uM zinc acetate, 200 nM TF, 25 C, 1 h; high values mean tight binding. The conditions noted are these: protein: recombinant; tags: N-terminal polyhistidine and DsRed monomer fusion (pET32a); chain copies: 2; label: CyDye5-dUTP incorporated in the synthesized complementary strand; 3' TTTTT single-stranded linker to array surface; dsDNA, one strand shown. The essentials: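 For the binding signal, per-feature fluorescence intensity was read in arbitrary units on an Axon 4000B scanner. Before scanning, a 2% BSA-blocked custom Agilent array made double-stranded with Cy5-dUTP was washed after 1 h at 25 °C with 200 nM protein and 50 µM zinc acetate. The proteins were Ni–NTA-purified transcription factors with N-terminal polyhistidine and DsRed fusions, expressed in E. coli BL21-CodonPlus.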
Regarding “ACAATACTACTATTGCCTGTTACGTAATTATGCATCTCTACGGAGTCACCTAGTGCAG”, the binding signal is 4040 fluorescence intensity (a.u.). Turning to “GTATCCATATATCCGATATGACACGCCAAAACTTTACACCCGGAGTCACCTAGTGCAG”, the binding signal is 4870 fluorescence intensity (a.u.).

In the case of “AACCTGCTGTCCACTACAACGTCACATTTCAACAAATCCACGGAGTCACCTAGTGCAG”, the binding signal was 34200 fluorescence intensity (a.u.). As for “TGTTGCTCAGCCATAGCTCCCAGCCTCCCACGTCCGCACGCGGAGTCACCTAGTGCAG”, the binding signal was 7210 fluorescence intensity (a.u.). “AGAGTTCGTGACGGCCCACGTGCCTTCATGTATGGGCTTTCGGAGTCACCTAGTGCAG”: the binding signal was 4440 fluorescence intensity (a.u.). As for “GCGCTCACTTTTCAGCTCATCACTCCGTCACCTCGTGCTCCGGAGTCACCTAGTGCAG”, the figure is 3850 fluorescence intensity (a.u.). As for “GGCTCTTTCTATTACGTACGTATGCACTATCTGTATATAGCGGAGTCACCTAGTGCAG”, the figure is 5100 fluorescence intensity (a.u.); as for “GATCAAGGAGGCCGTGGCGGACAGGGAGTGCGGGGTGGATCGGAGTCACCTAGTGCAG”, 3360 fluorescence intensity (a.u.); as for “AGTGAGCACGCCTACGTGGCAGTTTGGCCGCATTGGCGATCGGAGTCACCTAGTGCAG”, 16900 fluorescence intensity (a.u.).

Take “TTTGCTGACTAGGATGCCATGTCAGCAAAGCCAGACAAAACGGAGTCACCTAGTGCAG”: the binding signal is 7290 fluorescence intensity (a.u.). With “TGGACAACATGTCGGCCACTCATCTAGTCATCTTAGAGTTCGGAGTCACCTAGTGCAG”, the binding signal was 4090 fluorescence intensity (a.u.). As for “ACACAGCAGCCGCACATCACCCTGACATCTCTCAATCGGACGGAGTCACCTAGTGCAG”, the figure is 3930 fluorescence intensity (a.u.); as for “TCAGATGAACTTATTCCCCACAAATATGGTCCTTACGTAGCGGAGTCACCTAGTGCAG”, 3530 fluorescence intensity (a.u.).

Consider “TTAAGTTCCGAGAAATGACGTGTTTGGCTACAATGCTAGCCGGAGTCACCTAGTGCAG”, for which the binding signal is 7650 fluorescence intensity (a.u.). To “TCCTTTTCCGAACCAAGTCCGCACCGCTCCGCACCCATTTCGGAGTCACCTAGTGCAG” belongs 3840 fluorescence intensity (a.u.); to “TCGATTGGGGATTGGGGATTGGGGATCAGGAGGGATGGGGCGGAGTCACCTAGTGCAG”, 4350 fluorescence intensity (a.u.). To “TTGGTAGGTTCGACCTACTAGATTGTTGTTGATAATATAACGGAGTCACCTAGTGCAG” belongs 51700 fluorescence intensity (a.u.); to “CTCGCCGCCGCCGCCGCGGGGCGTCATTCTCTCCGGTGCGCGGAGTCACCTAGTGCAG”, 3850 fluorescence intensity (a.u.). To “TTCAACCCTGCGATTCAAAGGGGCCCTTAGCATTGCAAAACGGAGTCACCTAGTGCAG” belongs 4630 fluorescence intensity (a.u.); to “TCGATTACTTCGCTCGTATGGTTCTCTGACGGATAGCCGACGGAGTCACCTAGTGCAG”, 19700 fluorescence intensity (a.u.); to “AAGTCATTGGGGAAGCTTGTTTCACTACGTGGACTTAACCCGGAGTCACCTAGTGCAG”, 5250 fluorescence intensity (a.u.).

As for “CGGCCGCCGCTGGTGCCATGACGACATCCTCTCTGACCGCCGGAGTCACCTAGTGCAG”, the binding signal was 3360 fluorescence intensity (a.u.). To “ACGGATTGTGATCCTTTAACTTAAATCACATGACTTTCAGCGGAGTCACCTAGTGCAG” belongs 21900 fluorescence intensity (a.u.); to “CTCTCTCAGATCCTACGTCCCAAATCGCTCCCACCTCACCCGGAGTCACCTAGTGCAG”, 3820 fluorescence intensity (a.u.); to “CCTGTGTGCCACCTGGGAATAAATTTGTACTCGTGCCATTCGGAGTCACCTAGTGCAG”, 3900 fluorescence intensity (a.u.). As for “CCTTCCCCGCCCTCCACCGCTGTGACCGCGCGCTGTCTGTCGGAGTCACCTAGTGCAG”, the figure is 3310 fluorescence intensity (a.u.); as for “CCTCGTTTCCACCTCTGTTGCCACCTCTAGTAGGACGCACCGGAGTCACCTAGTGCAG”, 3990 fluorescence intensity (a.u.). Consider “TTTTATCAAATTACTTATATGGTTCTCACAATTCAAAGCCCGGAGTCACCTAGTGCAG”, for which the binding signal was 13900 fluorescence intensity (a.u.). As for “GGCTGGCTGGGCTGGTGGGTACTGGGTTTCACTGATGAAACGGAGTCACCTAGTGCAG”, the binding signal is 3810 fluorescence intensity (a.u.). As for “TTAAAGCTTATCTTAATGCAATTTACGTCATCATTTCGTGCGGAGTCACCTAGTGCAG”, the figure is 11300 fluorescence intensity (a.u.). Regarding “GTTGTACACTAGTAGTACCACGTATCAATGCTCTCTCGATCGGAGTCACCTAGTGCAG”, the binding signal was 4720 fluorescence intensity (a.u.). Turning to “GCCATGTCAAATAAATACAAAGTCAACGTGTCACATTAGCCGGAGTCACCTAGTGCAG”, the binding signal was 8310 fluorescence intensity (a.u.). As for “TTCCTCCCGCTCATCAGCCACATCGACATCATCCACTGCCCGGAGTCACCTAGTGCAG”, the figure is 7100 fluorescence intensity (a.u.). As for “CTTTCCTTGTGTCCAGATCTGAGTTGGTGCATCACTAAGACGGAGTCACCTAGTGCAG”, the figure is 3880 fluorescence intensity (a.u.); as for “ACCTTGGTGAAACACAAATTAATTACTCGCCCACGTAGATCGGAGTCACCTAGTGCAG”, 4100 fluorescence intensity (a.u.). Take “CGACTACGAGACGCGAGGTTGAAGACAAGTAAGTACTCCTCGGAGTCACCTAGTGCAG”: the binding signal was 65500 fluorescence intensity (a.u.). Consider “AGGTTTAGGGTTTAGGGATGAATCTGGACAAATGATTGTTCGGAGTCACCTAGTGCAG”, for which the binding signal is 3560 fluorescence intensity (a.u.). To “TAATATCTTCTATGTAGGAAAATATGCTGACATGGATCTCCGGAGTCACCTAGTGCAG” belongs 4640 fluorescence intensity (a.u.); to “TAGATTTACTCACAGCTTGCCACATCAGAGTTTGTAAACACGGAGTCACCTAGTGCAG”, 7600 fluorescence intensity (a.u.); to “TTGCAGTAGAGTTCCGATGAGATGACGCCGCTAGATCCCCCGGAGTCACCTAGTGCAG”, 4600 fluorescence intensity (a.u.). Take “GAAAGTGCGTCACGAAATCTATTAGAATATGATTAATTAACGGAGTCACCTAGTGCAG”: the binding signal is 3140 fluorescence intensity (a.u.).

With “TCCCGGCCGCCGCAGCCTGCGTGCGTGCGTGTGCGTGCGACGGAGTCACCTAGTGCAG”, the binding signal is 9470 fluorescence intensity (a.u.).

The values above are taken from article PMC7819943, “Rice protein-binding microarrays: a tool to detect cis-acting elements near promoter regions in rice”.
